The values that follow come from publication PMC7819943, “Rice protein-binding microarrays: a tool to detect cis-acting elements near promoter regions in rice”.

By UniProt entry, the sequences of proteins in these tests, tags left out.
UniProt Q0JBA9, entry or part of it: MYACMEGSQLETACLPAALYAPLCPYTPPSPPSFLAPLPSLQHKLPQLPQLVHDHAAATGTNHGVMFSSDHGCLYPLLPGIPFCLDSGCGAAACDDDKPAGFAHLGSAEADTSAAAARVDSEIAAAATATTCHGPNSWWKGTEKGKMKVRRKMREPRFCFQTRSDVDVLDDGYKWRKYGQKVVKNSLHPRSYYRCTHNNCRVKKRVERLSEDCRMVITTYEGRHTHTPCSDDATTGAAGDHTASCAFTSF

The other results are listed elsewhere or left out.

This assay addresses OsWRKY34 (Oryza sativa, UniProt Q0JBA9 1-250). Description: protein-binding microarray (RPBM); PBS, 2% BSA, 51.3 ng/ul salmon testes DNA, 50 uM zinc acetate, 200 nM TF, 25 C, 1 h; high values mean tight binding. The settings on record: protein: recombinant; tags: N-terminal polyhistidine and DsRed monomer fusion (pET32a); label: CyDye5-dUTP incorporated in the synthesized complementary strand; 3' TTTTT single-stranded linker to array surface; dsDNA, one strand shown. The method in brief:
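Binding signal is reported as fluorescence intensity per feature (arbitrary units) from an Axon 4000B scanner. Incubation used 200 nM of each Ni–NTA-purified, N-terminally polyhistidine- and DsRed-fused transcription factor from E. coli BL21-CodonPlus on a double-stranded custom Agilent array for 1 h at 25 °C, with 50 µM zinc acetate in the buffer, followed by washing.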
With “ACACCTCTATTTTTTATATAATGTTTGTTTGCATTGTACACGGAGTCACCTAGTGCAG”, the binding signal is 11700 fluorescence intensity (a.u.).

Consider “TACCTCCGTTTTTTAATAGATGACGCCGTTGACTTTTTCTCGGAGTCACCTAGTGCAG”, for which the binding signal is 25000 fluorescence intensity (a.u.).

On to “CATCTCCATCTACATATACGGCCGCTTCCAACTGCAATCTCGGAGTCACCTAGTGCAG”, for which the binding signal was 10400 fluorescence intensity (a.u.).

On to “CCTCCCCTCCGTCAGATCCGGGGAGGGGCGGCCGCGGAGGCGGAGTCACCTAGTGCAG”, for which the binding signal was 8110 fluorescence intensity (a.u.).

Regarding “CACTCCATATGACAAATGCATGCCTCTCTCACTTCTTCCCCGGAGTCACCTAGTGCAG”, the binding signal is 8580 fluorescence intensity (a.u.).

Regarding “AATAGTATTTCCGTTTGTTGTTGAAAATATTGTTTTGTTTCGGAGTCACCTAGTGCAG”, the binding signal was 10900 fluorescence intensity (a.u.).

Consider “CGCTGACGACCGCCGGCGCGCCGTTCCACCTCGCCGCCGGCGGAGTCACCTAGTGCAG”, for which the binding signal is 10500 fluorescence intensity (a.u.).

“AACACCGGCGCCTGCCGACCACCCGCCGCCGCTCTTATCACGGAGTCACCTAGTGCAG”: the binding signal is 13700 fluorescence intensity (a.u.).

With “GCGCACCACCACCACCCAACCCCAAGTCCATCCACGGTTTCGGAGTCACCTAGTGCAG”, the binding signal was 12800 fluorescence intensity (a.u.).

For the sequence “CTGATCGAATACTCTAGCATTGCGATCTTTCCAAATTTGCCGGAGTCACCTAGTGCAG”, the binding signal was 8510 fluorescence intensity (a.u.).

Regarding “ACATGTAAACTGTGCAATTGATTTTTTTTGTCCACATTTACGGAGTCACCTAGTGCAG”, the binding signal is 10400 fluorescence intensity (a.u.).

In the case of “TGCTTTTTTTTTCTAATCTGGCTTTGTTAAGTTTGACTAACGGAGTCACCTAGTGCAG”, the binding signal was 10200 fluorescence intensity (a.u.).

Take “TGGGATGGAGAGAGTAGGTTATAGCAACATGAGTTTGTGACGGAGTCACCTAGTGCAG”: the binding signal is 9660 fluorescence intensity (a.u.).

Regarding “CGAGTCCACTCCTCGTCGCACGCCTGCCTGCGTCACCACCCGGAGTCACCTAGTGCAG”, the binding signal is 8440 fluorescence intensity (a.u.).

In the case of “GTTTCGCGCTCGTGGTTTCTTACTTGACGCACGTGCAATCCGGAGTCACCTAGTGCAG”, the binding signal is 10800 fluorescence intensity (a.u.).

For the sequence “GCGACTCTGCCTCCTATACGGTCATAGTCCATGCAGTACCCGGAGTCACCTAGTGCAG”, the binding signal is 9520 fluorescence intensity (a.u.).

Consider “TAGGTAGTGTTTGGTTGCAAGGATGGGATAGAATGGGATGCGGAGTCACCTAGTGCAG”, for which the binding signal was 8230 fluorescence intensity (a.u.).

Regarding “TACATCATCTAGTGTTGCAGCAGCAGTGTGTGTAAGAGGACGGAGTCACCTAGTGCAG”, the binding signal is 28500 fluorescence intensity (a.u.).

As for “GATCATCGTCCTATTTGGCTTTCGGCGGCCAGCCCGCCTCCGGAGTCACCTAGTGCAG”, the binding signal is 8940 fluorescence intensity (a.u.).

For the sequence “TTATTTTATGTCGGTCTTATGTGTCGTGATGTATTTAACACGGAGTCACCTAGTGCAG”, the binding signal was 9330 fluorescence intensity (a.u.).

As for “CCCCTAGCGCCCCGGAAGCCTCATCTCCTCCTCCCGCGCCCGGAGTCACCTAGTGCAG”, the binding signal is 8620 fluorescence intensity (a.u.).

With “TGTCCGTCACGAAATCTCCAATCGCGTCATCAGCTATACCCGGAGTCACCTAGTGCAG”, the binding signal was 10100 fluorescence intensity (a.u.).

In the case of “TTTCACCGTCTCGTTCAATCGATCGTAACCGAAACCGCATCGGAGTCACCTAGTGCAG”, the binding signal is 9510 fluorescence intensity (a.u.).

“ACCCAAAGGGTGCTAATTGGGGCTATTTTTGGTGGGGCTCCGGAGTCACCTAGTGCAG”: the binding signal was 9270 fluorescence intensity (a.u.).

Take “CTGGGCGATCTCTCTCTTCCTAATCATAGATCTCAACATACGGAGTCACCTAGTGCAG”: the binding signal was 8210 fluorescence intensity (a.u.).

Take “TTTAGGGGTACATATTTCTGGTGTTGTGGTTAAGGGATCTCGGAGTCACCTAGTGCAG”: the binding signal was 10100 fluorescence intensity (a.u.).

Turning to “TAGTCGATGGGCTGGATGTGGGACTGAGCGTTGGGCCGGGCGGAGTCACCTAGTGCAG”, the binding signal is 8800 fluorescence intensity (a.u.).

Regarding “GGGTGTCACGTTGTCATGTTATGTTTTTGTTCTGGAGATTCGGAGTCACCTAGTGCAG”, the binding signal is 13500 fluorescence intensity (a.u.).

With “CAACGTCTCCACCTTTTCGGCCGCGGCTTCCGCCGGAAGCCGGAGTCACCTAGTGCAG”, the binding signal was 9890 fluorescence intensity (a.u.).

Take “ACACCCGCTCTCCTCCACCACACGCCGCCCAATCACCACCCGGAGTCACCTAGTGCAG”: the binding signal is 11300 fluorescence intensity (a.u.).

Consider “CATTTTTCATATGTTGTATCCAGTAGCTATATTAGTACTACGGAGTCACCTAGTGCAG”, for which the binding signal is 9930 fluorescence intensity (a.u.).

For the sequence “TCGCCGCTTTCCCTTTCTCCCCTGCGCTCTCACGTCAAACCGGAGTCACCTAGTGCAG”, the binding signal is 8970 fluorescence intensity (a.u.).

With “AACTTCCAACTTTTCCGTCACATCGTTCCAATTTCAATCACGGAGTCACCTAGTGCAG”, the binding signal is 9070 fluorescence intensity (a.u.).

“ACAGATCAGGTTGTGTTTCTTGGTTTTGTTGTTTCAGGTTCGGAGTCACCTAGTGCAG”: the binding signal is 8480 fluorescence intensity (a.u.).

As for “TGCTCATCCTCGACCTCCACTCCCGATGGGGCAACCGGTACGGAGTCACCTAGTGCAG”, the binding signal was 8140 fluorescence intensity (a.u.).

For the sequence “ATTTTCATTTCTTCTTCTTGCTTATGTAAAGTAGCAGTTGCGGAGTCACCTAGTGCAG”, the binding signal is 8160 fluorescence intensity (a.u.).

On to “TCTGCTTTTATTCATCGGTTTCATTAATTGTTTCTGTTACCGGAGTCACCTAGTGCAG”, for which the binding signal is 17200 fluorescence intensity (a.u.).

As for “ACTTTTTAAAACATGTTTGACCGTTCATCTTATTTAAAAACGGAGTCACCTAGTGCAG”, the binding signal was 8690 fluorescence intensity (a.u.).

With “CTATACTATGTCTATGAATGTTATTTTTACTGGCTTTTGACGGAGTCACCTAGTGCAG”, the binding signal was 9090 fluorescence intensity (a.u.).

As to “TTGCATCCTTTTAGTATATTGTGTCCCTTTTGTGTGTTCTCGGAGTCACCTAGTGCAG”, the binding signal is 10400 fluorescence intensity (a.u.).

With “TACTGTAAATCTTGGAGTTATCTTTCTTGTCACAATATCTCGGAGTCACCTAGTGCAG”, the binding signal was 8700 fluorescence intensity (a.u.).

Take “TTTTTTTATCTCACTTATTTATTCATGTTTACATTTCCAGCGGAGTCACCTAGTGCAG”: the binding signal was 8620 fluorescence intensity (a.u.).
